According to patent US20060089335A1, “Compositions and methods for enhancing cognitive function and synaptic plasticity” (priority 2003, published 2006):
Entries after “also recorded” stand apart in the source; their conditions may differ. For at least one compound, name, drawing or mass did not settle the structure.

Tests used:
[1] = tested on: excitatory and inhibitory terminals; conditions: short treatment (2-24 hr)
[2] = tested on: cultured hippocampal neurons; test: control recordings of membrane potential, synaptic inputs and firing; assay type: cell-based, rat; conditions: treatments of FIG. 5D
Method: Electrophysiology. Dual whole cell perforated patch clamp recordings were made on two interconnected cultured hippocampal pyramidal neurons. Perforated patch pipettes were front-filled with a solution containing (in mM): CsOH, 127; D-gluconic acid, 127; CsCl, 4; HEPES, 10; NaCl, 8; EGTA, 0.4; pH was adjusted to 7.25 with CsOH, and then back-filled with the same solution containing […] amphotericin B (Sigma, St. Louis, Mo.). Extracellular solution contained (in mM): NaCl, 145; KCl, 3; glucose, 15; HEPES, 10; MgCl2, 0.8-1.2; CaCl2, 1.2; 0.005 glycine (Sigma), 0.05 picrotoxin (Sigma); pH adjusted to 7.4 with NaOH. MgCl2 concentration was matched to its concentration in culture medium. In experiments where effects of drugs on neuronal activity were quantified (FIG. 4D), recordings were done in culture medium (with HEPES replacing bicarbonate/CO2 to maintain pH). All experiments were performed at room temperature. For assaying synaptic connectivity, each neuron was stimulated by 1 ms step depolarization from −70 to +30 mV in voltage-clamp mode. Only neurons with monosynaptic connections were used. […] Recordings with access resistance>20 MΩ or that varied substantially were rejected from analysis.

[3] = tested on: presynaptic terminals of cultured hippocampal neurons; test: TBS-induced presynaptic plasticity measured by FM 1-43 dye uptake in hippocampal cultures; assay type: cell-based, rat; conditions: 48 hours of incubation

COCCOC(=O)C1=C(C)NC(C)=C(C(=O)OC(C)C)C1c1cccc([N+](=O)[O-])c1 (stereo not drawn) [nimodipine, reference compound]
change of synaptic density [1]: No short treatment (2-24 hr, baclofen, nimodepine, NBQX, and TTX) produced a significant change of synaptic density | change in average firing rates of neurons within cultured neural networks [2]: none of these treatments induces a significant change | TBS-induced potentiation / plasticity after prolonged treatment [3]: no significant TBS-induced potentiation; also recorded: does not trigger an increase of synaptic plasticity
